PMC9233711, “Wiskott-Aldrich syndrome protein forms nuclear condensates and regulates alternative splicing” (Nature Communications, 2022)
These are yes or no findings as the source states them, for the method shown. In cells and extracts the contact can be indirect. A yes stands for co-enrichment or nearness to the bait. Other partners may have been found. Blank lines part the entries; values can stand above or below the molecule they belong to.

Sequences of proteins named here, by UniProt entry; tags and fusion partners are left off.
UniProt P42768: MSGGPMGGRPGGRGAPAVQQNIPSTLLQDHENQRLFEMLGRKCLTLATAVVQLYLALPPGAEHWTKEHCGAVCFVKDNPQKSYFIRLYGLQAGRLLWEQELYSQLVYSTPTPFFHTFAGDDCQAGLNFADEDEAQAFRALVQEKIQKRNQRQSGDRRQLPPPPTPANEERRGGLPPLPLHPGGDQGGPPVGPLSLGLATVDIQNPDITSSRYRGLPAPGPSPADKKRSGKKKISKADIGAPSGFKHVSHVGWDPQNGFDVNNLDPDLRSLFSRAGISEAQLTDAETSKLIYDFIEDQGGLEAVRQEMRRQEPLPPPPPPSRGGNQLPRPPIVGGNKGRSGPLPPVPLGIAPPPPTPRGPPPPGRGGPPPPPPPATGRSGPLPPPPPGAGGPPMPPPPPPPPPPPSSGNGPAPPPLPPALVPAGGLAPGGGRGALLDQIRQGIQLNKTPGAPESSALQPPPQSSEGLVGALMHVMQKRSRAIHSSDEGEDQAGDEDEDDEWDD
UniProt Q99459: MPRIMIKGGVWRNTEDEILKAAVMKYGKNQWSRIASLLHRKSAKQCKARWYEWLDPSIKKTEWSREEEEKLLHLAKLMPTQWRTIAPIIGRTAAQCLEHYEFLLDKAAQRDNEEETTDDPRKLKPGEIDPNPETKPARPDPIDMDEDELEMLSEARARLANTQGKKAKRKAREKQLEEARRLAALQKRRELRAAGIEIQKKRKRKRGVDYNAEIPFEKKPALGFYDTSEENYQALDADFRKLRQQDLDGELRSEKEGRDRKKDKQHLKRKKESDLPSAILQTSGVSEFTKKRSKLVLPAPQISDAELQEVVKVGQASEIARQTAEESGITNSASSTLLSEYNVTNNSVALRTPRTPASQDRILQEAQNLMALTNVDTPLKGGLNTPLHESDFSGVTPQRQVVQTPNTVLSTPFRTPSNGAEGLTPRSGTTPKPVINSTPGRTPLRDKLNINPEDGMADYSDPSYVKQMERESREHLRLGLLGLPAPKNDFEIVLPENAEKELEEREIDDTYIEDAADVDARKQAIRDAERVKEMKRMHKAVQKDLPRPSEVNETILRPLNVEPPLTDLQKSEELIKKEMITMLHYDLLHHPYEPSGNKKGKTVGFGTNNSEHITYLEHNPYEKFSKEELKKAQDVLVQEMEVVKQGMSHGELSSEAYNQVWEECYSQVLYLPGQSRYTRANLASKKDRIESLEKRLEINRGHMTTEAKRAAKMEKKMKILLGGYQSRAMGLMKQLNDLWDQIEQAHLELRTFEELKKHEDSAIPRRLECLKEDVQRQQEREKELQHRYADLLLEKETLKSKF
UniProt Q15393: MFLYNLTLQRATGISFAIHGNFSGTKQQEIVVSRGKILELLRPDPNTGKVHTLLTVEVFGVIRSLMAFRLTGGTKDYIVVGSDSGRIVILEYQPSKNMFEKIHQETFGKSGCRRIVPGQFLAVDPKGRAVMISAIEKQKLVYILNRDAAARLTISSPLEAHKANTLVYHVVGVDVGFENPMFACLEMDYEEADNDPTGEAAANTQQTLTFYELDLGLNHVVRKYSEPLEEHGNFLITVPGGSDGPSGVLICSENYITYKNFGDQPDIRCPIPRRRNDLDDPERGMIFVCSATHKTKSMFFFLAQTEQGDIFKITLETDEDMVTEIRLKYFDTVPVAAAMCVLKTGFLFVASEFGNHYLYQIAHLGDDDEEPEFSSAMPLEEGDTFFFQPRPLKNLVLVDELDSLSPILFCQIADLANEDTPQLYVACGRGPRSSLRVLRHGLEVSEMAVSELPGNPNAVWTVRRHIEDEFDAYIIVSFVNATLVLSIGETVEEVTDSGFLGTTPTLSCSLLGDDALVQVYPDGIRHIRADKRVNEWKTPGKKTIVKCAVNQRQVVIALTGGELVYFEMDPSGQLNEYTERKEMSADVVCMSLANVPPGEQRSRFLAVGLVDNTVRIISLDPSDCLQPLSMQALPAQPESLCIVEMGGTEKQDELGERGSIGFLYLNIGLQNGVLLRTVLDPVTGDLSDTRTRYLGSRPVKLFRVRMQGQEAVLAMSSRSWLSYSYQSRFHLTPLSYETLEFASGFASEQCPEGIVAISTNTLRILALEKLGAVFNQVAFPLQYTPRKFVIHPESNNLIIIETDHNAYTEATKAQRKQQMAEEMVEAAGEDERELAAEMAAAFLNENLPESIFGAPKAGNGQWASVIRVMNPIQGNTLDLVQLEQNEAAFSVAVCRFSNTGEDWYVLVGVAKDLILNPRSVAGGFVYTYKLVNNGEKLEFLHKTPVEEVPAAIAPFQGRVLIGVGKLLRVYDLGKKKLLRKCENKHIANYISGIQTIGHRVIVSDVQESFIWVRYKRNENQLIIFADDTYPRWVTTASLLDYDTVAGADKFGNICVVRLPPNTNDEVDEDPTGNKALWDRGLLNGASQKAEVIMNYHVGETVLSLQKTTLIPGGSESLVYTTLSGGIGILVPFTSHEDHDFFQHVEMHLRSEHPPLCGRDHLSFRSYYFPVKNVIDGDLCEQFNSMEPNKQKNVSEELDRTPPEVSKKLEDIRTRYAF
UniProt O60264: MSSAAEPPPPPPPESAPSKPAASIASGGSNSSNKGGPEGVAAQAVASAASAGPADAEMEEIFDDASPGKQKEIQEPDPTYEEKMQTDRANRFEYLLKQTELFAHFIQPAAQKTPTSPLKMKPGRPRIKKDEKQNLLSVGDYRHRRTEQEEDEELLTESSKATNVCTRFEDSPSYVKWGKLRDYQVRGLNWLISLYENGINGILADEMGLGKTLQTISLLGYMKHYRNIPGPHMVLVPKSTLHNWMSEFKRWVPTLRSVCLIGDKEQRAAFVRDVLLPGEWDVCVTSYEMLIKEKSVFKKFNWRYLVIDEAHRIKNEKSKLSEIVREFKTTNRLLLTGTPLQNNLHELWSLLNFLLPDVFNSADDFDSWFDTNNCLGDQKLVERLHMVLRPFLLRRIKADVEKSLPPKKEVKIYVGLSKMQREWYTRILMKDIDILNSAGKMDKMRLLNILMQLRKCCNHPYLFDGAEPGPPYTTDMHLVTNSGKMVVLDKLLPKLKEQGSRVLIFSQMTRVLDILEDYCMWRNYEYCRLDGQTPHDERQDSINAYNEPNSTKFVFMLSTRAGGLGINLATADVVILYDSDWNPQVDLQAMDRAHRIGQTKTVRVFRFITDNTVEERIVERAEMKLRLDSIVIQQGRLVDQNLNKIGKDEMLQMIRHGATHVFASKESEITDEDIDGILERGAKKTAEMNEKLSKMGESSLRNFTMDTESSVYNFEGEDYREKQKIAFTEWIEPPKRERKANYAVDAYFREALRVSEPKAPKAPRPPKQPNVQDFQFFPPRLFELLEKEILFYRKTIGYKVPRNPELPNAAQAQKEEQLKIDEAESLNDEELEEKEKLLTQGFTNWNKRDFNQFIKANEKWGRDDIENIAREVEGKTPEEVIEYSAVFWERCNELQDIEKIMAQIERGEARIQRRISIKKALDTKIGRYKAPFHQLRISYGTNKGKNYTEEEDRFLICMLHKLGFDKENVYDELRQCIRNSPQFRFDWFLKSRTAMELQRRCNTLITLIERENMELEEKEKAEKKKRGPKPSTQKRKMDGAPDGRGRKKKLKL
UniProt O43516: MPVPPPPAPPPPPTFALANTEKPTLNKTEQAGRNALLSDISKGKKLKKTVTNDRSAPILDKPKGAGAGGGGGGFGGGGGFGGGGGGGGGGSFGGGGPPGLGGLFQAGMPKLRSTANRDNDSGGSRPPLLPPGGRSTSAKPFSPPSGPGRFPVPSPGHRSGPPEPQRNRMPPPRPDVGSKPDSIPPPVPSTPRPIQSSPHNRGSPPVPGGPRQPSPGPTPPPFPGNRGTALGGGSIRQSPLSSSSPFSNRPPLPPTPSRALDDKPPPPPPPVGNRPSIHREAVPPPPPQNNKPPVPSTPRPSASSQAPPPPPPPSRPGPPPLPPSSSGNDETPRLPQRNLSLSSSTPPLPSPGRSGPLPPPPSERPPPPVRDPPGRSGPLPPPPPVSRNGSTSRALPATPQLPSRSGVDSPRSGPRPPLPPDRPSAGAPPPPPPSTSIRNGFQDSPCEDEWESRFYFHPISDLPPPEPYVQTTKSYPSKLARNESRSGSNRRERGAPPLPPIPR
UniProt P08670: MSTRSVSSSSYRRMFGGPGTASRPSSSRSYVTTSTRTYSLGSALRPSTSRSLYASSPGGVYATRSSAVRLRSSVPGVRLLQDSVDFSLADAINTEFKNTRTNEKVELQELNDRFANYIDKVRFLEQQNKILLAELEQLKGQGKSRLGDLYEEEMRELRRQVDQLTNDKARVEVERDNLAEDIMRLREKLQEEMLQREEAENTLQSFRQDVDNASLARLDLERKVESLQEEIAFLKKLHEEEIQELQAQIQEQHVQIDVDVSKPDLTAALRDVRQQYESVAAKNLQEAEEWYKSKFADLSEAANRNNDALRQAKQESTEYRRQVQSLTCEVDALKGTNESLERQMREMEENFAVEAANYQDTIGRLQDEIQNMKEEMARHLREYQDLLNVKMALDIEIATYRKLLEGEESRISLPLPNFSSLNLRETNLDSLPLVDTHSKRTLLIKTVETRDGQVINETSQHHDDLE

Biological target: Wiskott-Aldrich syndrome protein (WASP), endogenous (human (endogenous in B lymphoblastoid cell lines)) (UniProt P42768)
Assay: affinity purification with mass spectrometry; co-IP of endogenous WASP with two monoclonal antibodies from wild-type B lymphoblastoid cell lines, whole cells and purified nuclei; MudPIT; peptides found in IgG co-IP or in WAS-null B cells filtered out

Molecule: CDC5L (from UniProt Q99459 1-802)
binding: binds

Molecule: SF3B3 (also known as SAP130), endogenous (from UniProt Q15393 1-1217)
binding: binds

Molecule: SMARCA5 (from UniProt O60264 1-1052)
binding: binds

Molecule: WIPF1 (from UniProt O43516 1-503)
binding: binds

Now from value to molecule:

binding: binds
Molecule: VIM (from UniProt P08670 1-466)

binding: binds
B1: SRSF2, endogenous (protein, UniProt Q01130 1-221)
chain: MSYGRPPPDVEGMTSLKVDNLTYRTSPDTLRRVFEKYGRVGDVYIPRDRYTKESRGFAFVRFHDKRDAEDAMDAMDGAVLDGRELRVQMARYGRPPDSHHSRRGPPPRRYGGGGYGRRSRSPRRRRRSRSRSRSRSRSRSRSRYSRSKSRSRTRSRSRSTSKSRSARRSKSKSSSVSRSRSRSRSRSRSRSPPPVSKRESKSRSRSKSPPKSPEEEGAVSS
